Data taken from publication PMC6712659.
No constants are given. Whether binding was seen depends on the method and setting. Binding seen in cells or lysates may run through a third protein. A yes stands for co-enrichment or nearness to the bait. Other partners may have been found. Sequences can lack the tags named with a protein.

Target: T1, soluble recombinant CLEC10A (extracellular part of human C-type glycoreceptor CLEC10A, myc-tagged) (human) (UniProt Q8IUN9)
T1 sequence: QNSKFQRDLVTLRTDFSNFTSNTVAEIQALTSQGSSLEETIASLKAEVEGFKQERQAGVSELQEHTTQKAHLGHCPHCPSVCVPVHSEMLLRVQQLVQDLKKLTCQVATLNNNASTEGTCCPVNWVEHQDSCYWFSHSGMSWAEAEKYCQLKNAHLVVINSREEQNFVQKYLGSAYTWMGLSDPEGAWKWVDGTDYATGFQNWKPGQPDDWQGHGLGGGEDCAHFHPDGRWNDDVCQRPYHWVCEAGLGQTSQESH
Test: affinity purification with mass spectrometry; myc-tagged CLEC10A held on anti c-myc agarose beads; 300 ug total protein lysate of two CLEC10A-positive breast tumors; binding buffer TBS, 0.1% Triton-X100, 1 mM CaCl2, 2 mM MgCl2; eluted with TBS, 10 mM EDTA (pH 7.4); SDS-PAGE, silver staining, gel slices to mass spectrometry; only the target purified

binding | Substance
binds | thrombospondin
binds | MUC16 (from UniProt Q8WXI7 1-14507)
binds | fibulin
